Experimental data published in PubChem BioAssay AID2685 (National Center for Advancing Translational Sciences (NCATS), 2010).
The other results are listed elsewhere or left out. Shown are side measurements of this screen, not its main read-out; they come without a call. Compounds called inactive in the main read-out are mostly missing here. Words in brackets tell the shape of the fitted curve; partial curves, single points and poor fits give uncertain potencies.

Assay: qHTS Assay for Lipid Storage Modulators in Drosophila S3 Cells;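 for cell number change: cells counted by Cell Tracker Red CMTPX staining in the red channel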
Details: BODIPY lipid droplet fluorescence, 18-24 h; for cell number change: measured here: cell count max response, cells fed with added oleic acid
Procedure, shortened: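 Drosophila S3 cells loaded with oleic acid (400 uM, as added) and compounds at several concentrations; lipid droplets imaged by 488-nm laser-scanning cytometry, 500–530 nm intensity and object ratio to cell channel. Percent activity normalized to 20 uM Triacsin C.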

[1] = measured here: cell number channel AC50, cells fed with added oleic acid
[2] = measured here: lipid fluorescence (Fed channel) AC50, cells fed with added oleic acid

Row | SMILES | cell number change | AC50 [1] | AC50 [2]
1 | Cc1cc(C)c(NC(=O)CNC(=O)Cc2ccc(S(=O)(=O)N3CCOCC3)s2)c(C)c1 | -37.7% | 29.1 µM [falling, single point] | 4.11 µM [falling, single point]
2 | NC(=O)CSc1nc(-c2ccccc2Cl)ns1 |  | 6.51 µM [falling, single point] | 4.11 µM [rising, single point]
3 | Cn1cnnc1SCc1ccc(C(=O)N/N=C(\CCC(=O)O)c2ccc(C(C)(C)C)cc2)cc1 | 4.6% | 0.651 µM [falling, single point] | 
4 | Cc1ccc(Cn2nnc3c(=O)[nH]c(C4CCCN(S(=O)(=O)c5ccc(F)cc5)C4)nc32)cc1 (configuration not stated) |  | 0.00651 µM [rising, full curve, poor fit] | 
5 | COc1cc(CNc2ccc3[nH]c(=O)[nH]c3c2)ccc1OCc1ccccc1F | -29.7% |  | 6.51 µM [falling, single point]
6 | O=C(NC(=S)Nc1cccc(CO)c1)c1ccc(-c2ccccc2)cc1 | 53.7% | 29.1 µM [rising, single point] | 0.82 µM [rising, partial curve]
7 | COc1cc2c(cc1OC)C(c1cc(C)ccc1C)CC(=O)N2 (configuration not stated) | -20.9% |  | 29.1 µM [falling, single point]
8 | CC1CCCN(C(=O)c2ccc3c(=O)n(C4CCCC4)c(=S)[nH]c3c2)C1 (configuration not stated) | -36.4% | 2.31 µM [falling, partial curve, poor fit] | 18.4 µM [falling, partial curve, poor fit]
9 | Cc1ccc(NC(=O)Cn2c(=O)c3cccn3c3ccccc32)c(C)c1 | 6.6% |  | 
10 | Cc1ccc(C2CC(C(F)(F)F)n3nc(C(=O)NCC4CCCO4)cc3N2)cc1 (configuration not stated) | 43.3% | 5.17 µM [rising, full curve, poor fit] | 
11 | C[C@H](NC(=O)[C@H]1N2C(=O)c3ccccc3C2SC1(C)C)C(=O)N1CCC[C@H]1CO (some centres not stated) | 8.09% |  | 
12 | Cc1ccc(NC(=O)C2CCN(S(=O)(=O)c3c(C)[nH]c(=O)[nH]c3=O)CC2)cc1 | -35.2% | 0.92 µM [falling, full curve] | 0.517 µM [falling, full curve, poor fit]
13 | O=[N+]([O-])c1cc(C(F)(F)F)ccc1N1CCN(S(=O)(=O)c2ccc3c(c2)CCCC3)CC1 | -33% | 4.61 µM [falling, full curve, poor fit] | 25.9 µM [falling, single point]
14 | COc1ccc(C(=O)Nc2nc(C)c(C)s2)cc1OC | -0.849% |  | 0.184 µM [rising, full curve]
15 | CC(=O)NC(NC(C)=O)c1ccc(Br)cc1 | -11.1% | 6.51 µM [rising, partial curve, poor fit] | 0.103 µM [rising, full curve, poor fit]
16 | COc1ccc(OCc2n[nH]c(=S)n2N)cc1 | 39.3% |  | 
17 | COc1cc(OC)cc(C(=O)Nc2ncn[nH]2)c1 | 5.59% |  | 
18 | O=C(N/N=C/c1ccccc1O)C1SCCCS1 | -5.19% |  | 0.00461 µM [falling, full curve, poor fit]
19 | COc1ccc(/C=C/C(=O)OCc2nc3ccccc3c(=O)[nH]2)c(OC)c1 | 0.378% |  | 1.03 µM [rising, full curve, poor fit]
20 | CCOC(=O)N1CCC(N2CCN(Cc3ccc(C)o3)C(CCO)C2)CC1 (configuration not stated) | 7.52% |  | 0.00411 µM [falling, full curve, poor fit]
21 | Cc1nc2ncnn2c(C)c1CCC(=O)N1CCN(C(=O)c2ccco2)CC1 | -13.9% |  | 

Row | SMILES | cell number change | AC50 [1] | AC50 [2]
22 | O=C(Nc1nnc(Cc2ccccc2)s1)c1cnccn1 | 5.41% |  | 0.0058 µM [rising, full curve, poor fit]
23 | COC(=O)c1ccc(Cn2cc(/C=C\[N+](=O)[O-])c3ccccc32)o1 | -25.8% |  | 
24 | COC(=O)c1sccc1NC(=O)CSc1nnnn1-c1ccccc1C | 59.2% | 0.206 µM [rising, full curve, poor fit] | 2.59 µM [rising, full curve]
25 | O=[N+]([O-])c1cc([N+](=O)[O-])c(Oc2cncc(Cl)c2)cc1NC1CCCCCCC1 | 14.1% |  | 
26 | CC(=O)c1cc2c(ccc3ccccc32)oc1=O | -4.67% |  | 6.51 µM [rising, single point]
27 | COc1ccc(C2NC(=O)NC(c3ccccc3)=C2c2nc3ccccc3s2)cc1 (configuration not stated) | -3.82% |  | 
28 | CCOC(=O)CC/C(=N\NC(N)=O)c1ccc(OC)c(Cl)c1 | 4.15% |  | 29.1 µM [rising, single point]
29 | COc1ccc(NC(=O)CN(c2ccc(OC)cc2)S(=O)(=O)c2c(C)nn(C)c2C)cc1 | 0.59% | 6.51 µM [falling, single point] | 
30 | COc1ccc(CCNC(=O)c2cccc(S(=O)(=O)N3CCOCC3)c2)cc1OC | -8.8% |  | 0.146 µM [falling, full curve, poor fit]
31 | CC(=O)NC(C)c1nc2ccccc2n1CC(=O)NC(C)CCc1ccccc1 (configuration not stated) | 17.3% |  | 
32 | CC(=O)c1c(N2CCN(c3ccccc3)CC2)nc(=S)n(-c2ccccc2)c1C | -15% |  | 0.517 µM [falling, single point]
33 | CC(=O)NC(CC(=O)NC1CCCCCC1)c1ccccc1 (configuration not stated) | 5.34% |  | 
34 | CCCNC(=O)N1CCN(S(=O)(=O)c2ccc3c(c2)OCCO3)CC1 | 16.1% |  | 4.11 µM [rising, full curve, poor fit]
35 | COc1cc(C2Nc3ccccc3C(=O)N2NS(C)(=O)=O)c([N+](=O)[O-])cc1OC (configuration not stated) | -2.84% |  | 
36 | COCC(=O)N(c1ccccc1)C(C)C(=O)OC (configuration not stated) | -2.66% |  | 
37 | O=C(CCC(=O)OC(C(=O)c1ccccc1)c1ccccc1)Nc1ccccc1 (configuration not stated) |  |  | 29.1 µM [falling, partial curve]
38 | CCCN1CCN(CCCNC(=O)c2ccc3c(=O)n(CCc4ccccc4)c(=O)[nH]c3c2)CC1 | 25.2% |  | 
39 | Cc1cc(NC(=O)CSc2nc(Cc3ccccc3)c(C)[nH]2)no1 | 10.7% |  | 
40 | Cc1c(CC=C(Cl)Cl)c(=O)[nH]c2c(C)cccc12 | -2.41% |  | 0.146 µM [rising, single point]
41 | CC1=CC2=NC(=O)CC(C)(C(=O)N(CC(=O)NC(C)(C)C)C3CCCC3)N2C=C1 (configuration not stated) | 7.64% |  | 
42 | N#Cc1ccccc1OCC(=O)OCC(=O)c1ccc2c(c1)NC(=O)CO2 | -11.5% |  | 0.0259 µM [rising, full curve, poor fit]

Reformatted as comma-separated lines: three of the compounds above.
Row,SMILES,cell number change,AC50 [1],AC50 [2]
11,C[C@H](NC(=O)[C@H]1N2C(=O)c3ccccc3C2SC1(C)C)C(=O)N1CCC[C@H]1CO (some centres not stated),8.09%,,
24,COC(=O)c1sccc1NC(=O)CSc1nnnn1-c1ccccc1C,59.2%,"0.206 µM [rising, full curve, poor fit]","2.59 µM [rising, full curve]"
33,CC(=O)NC(CC(=O)NC1CCCCCC1)c1ccccc1 (configuration not stated),5.34%,,

(cont.)

Row | SMILES | cell number change | AC50 [1] | AC50 [2]
43 | O=C(CS(=O)(=O)c1ccccc1)Nc1ccc(N2CCOCC2)cc1 | 19.7% |  | 
44 | CCN(CC)S(=O)(=O)c1cc(NC(=O)COC(=O)c2sc3ccccc3c2Cl)ccc1C | 33.6% | 4.11 µM [rising, full curve, poor fit] | 
45 | O=C(COC(=O)CNC(=O)c1ccc(Cl)cc1Cl)NCC1CCCO1 (configuration not stated) | -9% |  | 
46 | O=C(Nc1ccncc1)Nc1ccc(F)cc1F |  | 0.411 µM [falling, single point] | 
47 | O=C1C=C(NC2=CC3OC(c4ccccc4)OCC3OC2=O)CCC1 (configuration not stated) | -72.4% | 23.1 µM [falling, partial curve] | 0.58 µM [falling, single point]
48 | COc1ccccc1OCC(=O)Nc1ccccc1C(=O)NCc1cccnc1 | -6.58% |  | 
49 | O=c1[nH]c(/C=C/c2ccc(OC(F)F)cc2)nc2c1cnn2-c1ccccc1 | 49% | 9.2 µM [rising, partial curve] | 0.00411 µM [rising, full curve, poor fit]
50 | O=C(CCSCc1ccccc1Cl)N1CCN(c2cccc(Cl)c2)CC1 | 34.5% | 29.1 µM [rising, single point] | 25.9 µM [rising, single point]
51 | N#CC1=C(N)OC(c2ccccc2)=C(C#N)C1c1ccc2c(c1)OCO2 (configuration not stated) | -2.58% |  | 4.11 µM [rising, partial curve]
52 | N#CCc1ccc(NC(=O)CSc2nnc(C3CC3)n2C2CC2)cc1 | -13% |  | 20.6 µM [rising, single point]
53 | O=C(CSc1nc2ccccc2s1)N/N=C/c1cc([N+](=O)[O-])ccc1O | 3.27% |  | 
54 | C=CCn1c(-c2ccc3[nH]c(C)c(C)c3c2)n[nH]c1=S | -3.47% |  | 
55 | CCOC(=O)c1cccc(NC(=O)Cn2cnc3c2c(=O)n(C)c(=O)n3C)c1 |  |  | 0.231 µM [rising, full curve, poor fit]
56 | COc1ccc(-c2nc(C)ncc2-c2csc(C)n2)c(O)c1 | 42.6% | 4.11 µM [rising, partial curve, poor fit] | 2.59 µM [rising, partial curve]
57 | CCOC(=O)N1CCC(c2nc3ccccc3[nH]2)CC1 | 4.23% | 0.651 µM [falling, single point] | 
58 | O=C(c1cc(-c2ccccc2)nc2ccccc12)N1CCCC1 | 10.1% |  | 
59 | CCCOc1ccc(N2CC(C(=O)Nc3ncccc3C)CC2=O)cc1 (configuration not stated) | 124% | 9.2 µM [rising, partial curve] | 2.06 µM [rising, partial curve]
60 | O=C(COc1ccccc1F)Nc1ccc(S(=O)(=O)Nc2nccs2)cc1 | 11.1% |  | 
61 | Cc1c(C(=O)Nc2ccc(N3CCOCC3)cc2)oc2ccccc12 | 45.7% | 0.00517 µM [rising, full curve, poor fit] | 
62 | COc1cccc(-n2c([S-])c(C(=O)Nc3ccc(C(F)(F)F)cc3)[n+]3ccccc23)c1 | 41% | 14.6 µM [rising, partial curve] | 
63 | COc1ccc(S(=O)(=O)NNC(=O)c2ccccc2-n2cccc2)cc1 | 44.8% | 20.6 µM [rising, single point] | 
